Measurements from paper PMC5399287.
These are yes or no findings as the source states them, for the method shown. In cells and extracts the contact can be indirect. These calls come from enrichment with a bait or labelling near it, and not all partners need be listed. No binding means not detected with the bait.

Sequences of proteins named here, by UniProt entry; tags and fusion partners are left off. A change or cut given only in a name is not applied to a line headed by its entry. Residues count along the entry.
UniProt P28301: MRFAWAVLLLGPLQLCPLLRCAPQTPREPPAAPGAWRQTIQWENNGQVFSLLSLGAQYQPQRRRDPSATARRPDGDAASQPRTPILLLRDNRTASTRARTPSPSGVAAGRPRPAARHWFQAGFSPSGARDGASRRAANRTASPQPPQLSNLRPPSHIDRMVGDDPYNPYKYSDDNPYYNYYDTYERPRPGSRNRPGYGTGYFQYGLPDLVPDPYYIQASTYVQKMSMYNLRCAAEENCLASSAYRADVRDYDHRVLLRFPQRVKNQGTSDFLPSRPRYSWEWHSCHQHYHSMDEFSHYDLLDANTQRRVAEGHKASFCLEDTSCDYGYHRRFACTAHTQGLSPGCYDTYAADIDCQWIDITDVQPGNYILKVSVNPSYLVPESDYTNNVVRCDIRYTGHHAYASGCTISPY
UniProt P12109, residues 20-1028: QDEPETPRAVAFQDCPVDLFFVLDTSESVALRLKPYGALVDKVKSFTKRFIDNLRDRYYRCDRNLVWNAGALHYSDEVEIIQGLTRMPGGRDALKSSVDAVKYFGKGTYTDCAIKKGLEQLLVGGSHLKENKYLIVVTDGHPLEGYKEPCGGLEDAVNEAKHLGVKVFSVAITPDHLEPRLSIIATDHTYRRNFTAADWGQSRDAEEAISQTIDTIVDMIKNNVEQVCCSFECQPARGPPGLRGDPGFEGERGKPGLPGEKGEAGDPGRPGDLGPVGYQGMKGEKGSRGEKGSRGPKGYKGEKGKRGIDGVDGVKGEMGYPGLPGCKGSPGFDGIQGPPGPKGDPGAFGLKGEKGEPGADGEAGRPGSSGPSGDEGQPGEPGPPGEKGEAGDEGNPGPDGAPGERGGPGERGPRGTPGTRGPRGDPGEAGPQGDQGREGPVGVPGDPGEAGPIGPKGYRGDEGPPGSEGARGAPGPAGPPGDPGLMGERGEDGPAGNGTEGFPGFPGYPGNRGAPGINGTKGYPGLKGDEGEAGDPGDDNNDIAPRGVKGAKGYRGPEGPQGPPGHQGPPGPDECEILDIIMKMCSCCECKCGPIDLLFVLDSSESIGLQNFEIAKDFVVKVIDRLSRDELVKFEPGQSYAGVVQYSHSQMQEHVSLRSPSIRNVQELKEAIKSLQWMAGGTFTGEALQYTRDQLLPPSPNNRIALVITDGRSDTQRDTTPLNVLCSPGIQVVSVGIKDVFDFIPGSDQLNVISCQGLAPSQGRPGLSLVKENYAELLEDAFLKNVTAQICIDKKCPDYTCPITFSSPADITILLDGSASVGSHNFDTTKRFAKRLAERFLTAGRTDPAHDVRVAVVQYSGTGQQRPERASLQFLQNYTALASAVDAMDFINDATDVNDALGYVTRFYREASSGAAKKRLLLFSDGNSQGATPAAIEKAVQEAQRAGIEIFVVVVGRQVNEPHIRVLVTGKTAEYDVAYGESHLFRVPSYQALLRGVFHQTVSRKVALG
UniProt Q92743, residues 23-480: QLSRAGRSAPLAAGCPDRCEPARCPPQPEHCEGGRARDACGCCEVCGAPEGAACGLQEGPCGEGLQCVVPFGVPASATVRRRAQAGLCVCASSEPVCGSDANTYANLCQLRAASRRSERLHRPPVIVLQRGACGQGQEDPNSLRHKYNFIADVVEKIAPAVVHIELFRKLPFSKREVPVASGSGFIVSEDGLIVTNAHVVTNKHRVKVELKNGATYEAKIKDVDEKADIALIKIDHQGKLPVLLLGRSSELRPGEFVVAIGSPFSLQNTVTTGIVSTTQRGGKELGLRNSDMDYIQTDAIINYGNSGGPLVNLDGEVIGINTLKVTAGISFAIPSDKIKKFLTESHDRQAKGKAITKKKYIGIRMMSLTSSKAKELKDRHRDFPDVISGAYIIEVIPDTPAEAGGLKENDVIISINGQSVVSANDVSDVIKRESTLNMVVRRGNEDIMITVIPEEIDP
UniProt P01137, residues 279-390: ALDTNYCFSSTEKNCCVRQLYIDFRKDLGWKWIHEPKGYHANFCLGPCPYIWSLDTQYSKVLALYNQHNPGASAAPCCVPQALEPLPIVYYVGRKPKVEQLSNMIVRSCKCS
UniProt P55268, residues 33-1798: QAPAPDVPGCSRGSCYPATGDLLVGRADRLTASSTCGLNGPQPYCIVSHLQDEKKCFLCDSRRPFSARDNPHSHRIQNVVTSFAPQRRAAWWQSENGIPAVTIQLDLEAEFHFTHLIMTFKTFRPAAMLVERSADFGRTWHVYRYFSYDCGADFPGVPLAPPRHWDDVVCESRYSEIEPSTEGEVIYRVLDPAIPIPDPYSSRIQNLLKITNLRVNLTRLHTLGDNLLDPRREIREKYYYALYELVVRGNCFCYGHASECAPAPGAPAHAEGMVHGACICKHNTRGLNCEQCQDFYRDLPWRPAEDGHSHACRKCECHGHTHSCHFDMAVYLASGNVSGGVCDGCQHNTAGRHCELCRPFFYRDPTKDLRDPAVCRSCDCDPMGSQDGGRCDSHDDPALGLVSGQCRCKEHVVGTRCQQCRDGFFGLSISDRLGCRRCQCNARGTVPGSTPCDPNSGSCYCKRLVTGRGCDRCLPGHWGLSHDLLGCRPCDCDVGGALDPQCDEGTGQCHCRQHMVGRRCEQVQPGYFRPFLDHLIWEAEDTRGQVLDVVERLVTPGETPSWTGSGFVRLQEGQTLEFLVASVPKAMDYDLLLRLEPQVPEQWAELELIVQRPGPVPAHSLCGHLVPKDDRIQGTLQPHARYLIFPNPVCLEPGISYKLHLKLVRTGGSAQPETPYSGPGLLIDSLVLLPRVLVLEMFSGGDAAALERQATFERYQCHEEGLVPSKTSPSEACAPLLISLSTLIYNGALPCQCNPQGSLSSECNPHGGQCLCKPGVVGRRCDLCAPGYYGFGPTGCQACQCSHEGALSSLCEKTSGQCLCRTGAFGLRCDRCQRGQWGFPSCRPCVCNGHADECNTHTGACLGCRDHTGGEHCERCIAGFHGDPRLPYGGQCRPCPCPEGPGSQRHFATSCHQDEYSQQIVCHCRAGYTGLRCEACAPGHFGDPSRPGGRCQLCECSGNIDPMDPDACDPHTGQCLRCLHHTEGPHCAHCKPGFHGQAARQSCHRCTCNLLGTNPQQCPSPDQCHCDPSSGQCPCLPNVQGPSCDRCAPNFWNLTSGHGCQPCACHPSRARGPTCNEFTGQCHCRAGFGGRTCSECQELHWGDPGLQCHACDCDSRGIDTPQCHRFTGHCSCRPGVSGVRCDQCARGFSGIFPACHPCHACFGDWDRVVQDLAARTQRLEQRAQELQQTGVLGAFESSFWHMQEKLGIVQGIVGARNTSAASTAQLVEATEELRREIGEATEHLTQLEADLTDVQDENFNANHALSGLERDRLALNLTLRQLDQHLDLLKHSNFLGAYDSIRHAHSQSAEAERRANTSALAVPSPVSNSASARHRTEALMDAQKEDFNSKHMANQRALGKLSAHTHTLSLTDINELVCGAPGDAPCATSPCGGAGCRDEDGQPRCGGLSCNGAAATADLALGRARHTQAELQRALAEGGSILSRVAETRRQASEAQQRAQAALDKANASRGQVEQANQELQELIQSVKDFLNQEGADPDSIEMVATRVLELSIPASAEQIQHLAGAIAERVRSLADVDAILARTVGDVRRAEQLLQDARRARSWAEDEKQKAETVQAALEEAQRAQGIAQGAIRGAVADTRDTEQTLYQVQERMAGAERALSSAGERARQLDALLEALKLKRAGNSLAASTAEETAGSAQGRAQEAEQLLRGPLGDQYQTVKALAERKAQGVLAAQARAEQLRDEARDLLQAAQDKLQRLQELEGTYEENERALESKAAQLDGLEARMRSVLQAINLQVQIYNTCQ
UniProt P29279, residues 27-349: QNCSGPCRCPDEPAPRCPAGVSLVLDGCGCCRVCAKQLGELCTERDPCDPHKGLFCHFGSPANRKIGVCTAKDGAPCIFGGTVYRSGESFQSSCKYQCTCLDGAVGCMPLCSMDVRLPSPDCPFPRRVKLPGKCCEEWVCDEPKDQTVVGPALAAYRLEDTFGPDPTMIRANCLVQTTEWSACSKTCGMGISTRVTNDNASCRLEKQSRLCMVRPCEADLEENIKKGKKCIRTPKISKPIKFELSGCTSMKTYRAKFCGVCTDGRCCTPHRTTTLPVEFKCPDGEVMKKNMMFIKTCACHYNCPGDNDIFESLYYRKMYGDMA
UniProt P11047, residues 34-1609: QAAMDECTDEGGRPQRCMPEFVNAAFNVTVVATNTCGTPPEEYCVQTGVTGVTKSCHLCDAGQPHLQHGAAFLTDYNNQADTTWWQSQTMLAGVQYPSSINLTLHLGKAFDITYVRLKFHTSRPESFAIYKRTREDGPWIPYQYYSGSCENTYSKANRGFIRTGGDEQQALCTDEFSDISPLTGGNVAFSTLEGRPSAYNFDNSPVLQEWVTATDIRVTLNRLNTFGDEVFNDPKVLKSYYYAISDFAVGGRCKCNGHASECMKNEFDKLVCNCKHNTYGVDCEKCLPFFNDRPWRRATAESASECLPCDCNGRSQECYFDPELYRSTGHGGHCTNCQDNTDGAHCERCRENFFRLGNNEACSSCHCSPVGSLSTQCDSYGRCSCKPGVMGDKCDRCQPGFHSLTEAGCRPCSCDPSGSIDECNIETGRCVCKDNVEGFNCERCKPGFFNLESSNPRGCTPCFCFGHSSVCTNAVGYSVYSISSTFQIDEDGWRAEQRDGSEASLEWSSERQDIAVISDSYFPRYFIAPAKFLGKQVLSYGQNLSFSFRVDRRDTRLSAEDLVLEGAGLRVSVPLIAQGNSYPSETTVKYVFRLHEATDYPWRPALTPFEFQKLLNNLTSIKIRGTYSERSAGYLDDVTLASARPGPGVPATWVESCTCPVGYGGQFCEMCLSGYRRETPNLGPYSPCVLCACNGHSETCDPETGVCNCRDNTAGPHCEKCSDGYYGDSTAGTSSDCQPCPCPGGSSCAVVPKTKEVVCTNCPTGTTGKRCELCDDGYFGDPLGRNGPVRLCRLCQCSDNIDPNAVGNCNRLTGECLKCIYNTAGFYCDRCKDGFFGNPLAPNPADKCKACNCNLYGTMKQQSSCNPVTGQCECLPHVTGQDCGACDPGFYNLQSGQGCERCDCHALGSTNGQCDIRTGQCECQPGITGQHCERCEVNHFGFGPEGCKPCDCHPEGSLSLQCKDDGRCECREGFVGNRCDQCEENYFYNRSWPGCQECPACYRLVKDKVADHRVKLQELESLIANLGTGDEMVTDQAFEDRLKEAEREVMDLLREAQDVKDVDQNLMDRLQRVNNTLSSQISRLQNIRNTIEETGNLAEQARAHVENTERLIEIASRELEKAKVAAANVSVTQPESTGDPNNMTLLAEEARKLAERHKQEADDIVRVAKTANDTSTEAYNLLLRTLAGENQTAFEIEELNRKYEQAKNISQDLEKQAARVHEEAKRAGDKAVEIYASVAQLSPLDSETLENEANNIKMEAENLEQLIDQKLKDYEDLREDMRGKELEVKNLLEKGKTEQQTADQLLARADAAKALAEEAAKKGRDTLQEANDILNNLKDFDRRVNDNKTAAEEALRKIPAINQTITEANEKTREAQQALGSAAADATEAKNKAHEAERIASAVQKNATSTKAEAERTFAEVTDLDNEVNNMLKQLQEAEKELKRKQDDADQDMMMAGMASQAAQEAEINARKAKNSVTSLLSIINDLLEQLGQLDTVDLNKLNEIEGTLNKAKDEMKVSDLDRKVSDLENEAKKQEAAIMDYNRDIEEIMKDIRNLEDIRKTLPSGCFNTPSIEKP

Molecular target: LOX-GFP (wild-type lysyl oxidase fused to GFP) (mouse) (UniProt P28301)
Experiment: affinity purification with mass spectrometry; GFP fusion proteins precipitated with GFP-Trap agarose beads overnight at 4 °C from 45 ml culture medium of stably expressing MDA-MB-231 cells; co-precipitated proteins from gel slices by LC-MS/MS

Row | binding | Molecule
1 | binds | COL6A1 (from UniProt P12109 20-1028)
2 | binds | HTRA1 (high-temperature requirement A serine peptidase 1) (from UniProt Q92743 23-480) (enzyme)
3 | no binding | transforming growth factor β1 (TGFβ1) (from UniProt P01137 279-390) (ligand)
4 | binds | LAMB2 (from UniProt P55268 33-1798)
5 | binds | CTGF (from UniProt P29279 27-349)
6 | binds | LAMC1 (from UniProt P11047 34-1609)
7 | binds | Matrilin2 (MATN2) (protein, UniProt O00339 24-956) RERSRGRSISRGRHARTHPQTALLESSCENKRADLVFIIDSSRSVNTHDYAKVKEFIVDILQFLDIGPDVTRVGLLQYGSTVKNEFSLKTFKRKSEVERAVKRMRHLSTGTMTGLAIQYALNIAFSEAEGARPLRENVPRVIMIVTDGRPQDSVAEVAAKARDTGILIFAIGVGQVDFNTLKSIGSEPHEDHVFLVANFSQIETLTSVFQKKLCTAHMCSTLEHNCAHFCINIPGSYVCRCKQGYILNSDQTTCRIQDLCAMEDHNCEQLCVNVPGSFVCQCYSGYALAEDGKRCVAVDYCASENHGCEHECVNADGSYLCQCHEGFALNPDKKTCTKIDYCASSNHGCQHECVNTDDSYSCHCLKGFTLNPDKKTCRRINYCALNKPGCEHECVNMEESYYCRCHRGYTLDPNGKTCSRVDHCAQQDHGCEQLCLNTEDSFVCQCSEGFLINEDLKTCSRVDYCLLSDHGCEYSCVNMDRSFACQCPEGHVLRSDGKTCAKLDSCALGDHGCEHSCVSSEDSFVCQCFEGYILREDGKTCRRKDVCQAIDHGCEHICVNSDDSYTCECLEGFRLAEDGKRCRRKDVCKSTHHGCEHICVNNGNSYICKCSEGFVLAEDGRRCKKCTEGPIDLVFVIDGSKSLGEENFEVVKQFVTGIIDSLTISPKAARVGLLQYSTQVHTEFTLRNFNSAKDMKKAVAHMKYMGKGSMTGLALKHMFERSFTQGEGARPLSTRVPRAAIVFTDGRAQDDVSEWASKAKANGITMYAVGVGKAIEEELQEIASEPTNKHLFYAEDFSTMDEISEKLKKGICEALEDSDGRQDSPAGELPKTVQQPTESEPVTINIQDLLSCSNFAVQHRYLFEEDNLLRSTQKLSHSTKPSGSPLEEKHDQCKCENLIMFQNLANEEVRKLTQRLEEMTQRMEALENRLRYR
8 | binds | CCBE1 (protein, UniProt Q6UXH8 35-406) YREEPEDGDREICSESKIATTKYPCLKSSGELTTCYRKKCCKGYKFVLGQCIPEDYDVCAEAPCEQQCTDNFGRVLCTCYPGYRYDRERHRKREKPYCLDIDECASSNGTLCAHICINTLGSYRCECREGYIREDDGKTCTRGDKYPNDTGHEKSENMVKAGTCCATCKEFYQMKQTVLQLKQKIALLPNNAADLGKYITGDKVLASNTYLPGPPGLPGGQGPPGSPGPKGSPGFPGMPGPPGQPGPRGSMGPMGPSPDLSHIKQGRRGPVGPPGAPGRDGSKGERGAPGPRGSPGPPGSFDFLLLMLADIRNDITELQEKVFGHRTHSSAEEFPLPQEFPSYPEAMDLGSGDDHPRRTETRDLRAPRDFYP
9 | binds | GPC1 (protein, UniProt P35052 24-530) DPASKSRSCGEVRQIYGAKGFSLSDVPQAEISGEHLRICPQGYTCCTSEMEENLANRSHAELETALRDSSRVLQAMLATQLRSFDDHFQHLLNDSERTLQATFPGAFGELYTQNARAFRDLYSELRLYYRGANLHLEETLAEFWARLLERLFKQLHPQLLLPDDYLDCLGKQAEALRPFGEAPRELRLRATRAFVAARSFVQGLGVASDVVRKVAQVPLGPECSRAVMKLVYCAHCLGVPGARPCPDYCRNVLKGCLANQADLDAEWRNLLDSMVLITDKFWGTSGVESVIGSVHTWLAEAINALQDNRDTLTAKVIQGCGNPKVNPQGPGPEEKRRRGKLAPRERPPSGTLEKLVSEAKAQLRDVQDFWISLPGTLCSEKMALSTASDDRCWNGMARGRYLPEVMGDGLANQINNPEVEVDITKPDMTIRQQIMQLKIMTNRLRSAYNGNDVDFQDASDDGSGSGSGDGCLDDLCSRKVSRKSSSSRTPLTHALPGLSEQEGQKTS
